Laboratory results reported in article doi:10.1101/2023.10.23.563394.
Construct, isoform or probe ends are uncertain for at least one entry. A negative result means that nothing was seen under these conditions. For part of these data: Weaker means in comparison with the reference protein, sequence or condition of that experiment.

Assays:
[1] = test system: CHT7_CXC (Chlamydomonas reinhardtii); test: EMSA
[2] = test system: CHT7_CXC (Chlamydomonas reinhardtii); test: fluorescence polarization
[3] = test system: CXC_N (Chlamydomonas reinhardtii); test: EMSA
[4] = test system: CXC_C (Chlamydomonas reinhardtii); test: EMSA
[5] = test system: CXC_N (Chlamydomonas reinhardtii); test: fluorescence polarization

GATCAATAGATGCGCAGATCATTTACATT (double strand) [29mer without TTYRAA site]
binding result [1]: no binding

GGTGTTTGAATTT (double strand) [13mer TTTGAA (EMSA)]
binding result [1]: binds more weakly

GGTGTTTGAATTT (double strand) [13mer TTTGAA, 6-FAM]
binding result [2]: no binding

TATCTGGTGCCTGAATTTCTGGATCTG (double strand) [27mer CCTGAA (EMSA)]
binding result [3]: binds more weakly | binding result [1]: binds | binding result [4]: no binding

TATCTGGTGCCTGCCTTTCTGGATCTG (double strand) [27mer CCTGCC (EMSA)]
binding result [1]: no binding

TATCTGGTGCCTGCCTTTCTGGATCTG (double strand) [27mer CCTGCC, 6-FAM]
binding result [2]: no binding

TATCTGGTGTTTGAATTTCTGGATCTG (double strand) [27mer TTTGAA (EMSA)]
binding result [3]: binds more weakly | binding result [1]: binds | binding result [4]: no binding

TATCTGGTGTTTGCCTTTCTGGATCTG (double strand) [27mer TTTGCC (EMSA)]
binding result [3]: no binding | binding result [1]: binds more weakly | binding result [4]: no binding

TATCTGGTGTTTGCCTTTCTGGATCTG (double strand) [27mer TTTGCC, 6-FAM]
binding result [5]: no binding | binding result [2]: no binding

TGGACTGGATTTGAACGATTGAAAGCT (double strand) [LHCA6 DNA]
binding result [1]: binds

TTCTTTTCATTTGAATGGTTTTCCGAC (double strand) [LHCB5 DNA]
binding result [1]: binds
